In patent publication US6448376:
No constants are given. Whether binding was seen depends on the method and setting. Some results given as binding are weak or reduced against the parent protein; the word gives no strength.

Chains of the proteins cited; added tags and fusions are not shown. Lines headed by an entry give the natural chain unless they say otherwise; changes in a name come on top.
UniProt Q14186: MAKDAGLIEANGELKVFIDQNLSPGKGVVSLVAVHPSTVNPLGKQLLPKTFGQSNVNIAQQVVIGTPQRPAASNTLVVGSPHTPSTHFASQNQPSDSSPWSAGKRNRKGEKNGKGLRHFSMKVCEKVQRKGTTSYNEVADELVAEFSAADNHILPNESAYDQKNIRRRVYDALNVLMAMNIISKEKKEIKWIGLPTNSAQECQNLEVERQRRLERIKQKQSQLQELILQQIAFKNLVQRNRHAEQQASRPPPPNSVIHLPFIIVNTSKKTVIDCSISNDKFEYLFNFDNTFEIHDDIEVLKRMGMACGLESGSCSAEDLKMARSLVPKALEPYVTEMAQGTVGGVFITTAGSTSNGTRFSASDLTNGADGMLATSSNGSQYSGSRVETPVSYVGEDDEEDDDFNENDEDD
UniProt Q15329: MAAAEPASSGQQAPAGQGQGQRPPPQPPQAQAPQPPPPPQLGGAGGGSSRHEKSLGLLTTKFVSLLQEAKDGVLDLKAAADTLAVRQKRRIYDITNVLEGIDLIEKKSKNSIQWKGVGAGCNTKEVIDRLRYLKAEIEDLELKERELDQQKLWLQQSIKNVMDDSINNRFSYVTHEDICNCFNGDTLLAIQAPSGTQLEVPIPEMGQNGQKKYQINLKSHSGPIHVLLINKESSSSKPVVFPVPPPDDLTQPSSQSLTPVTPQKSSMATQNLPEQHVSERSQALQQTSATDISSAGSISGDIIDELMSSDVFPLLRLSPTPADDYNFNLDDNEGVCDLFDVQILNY

Biological target: DP-1 (expressed from pCMV-DP-1) (UniProt Q14186)
Assay: band shift assay (EMSA) with extracts of transfected U2-OS cells

binding: binds
Substance: HA-tagged full length human E2F-5 (expressed from pJ3-E2F-5) (from UniProt Q15329 1-346)
